# PubChem BioAssay AID652272 – Drosophila RNAi Screening Center – 2013
# Aim: 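Finding fly genes that regulate Hedgehog signal transduction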 (primary screen)
# Cell system: Drosophila clone 8 (Cl8) cells
# Reagent: long dsRNA against Drosophila genes
# Measurement: 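Plate reader light from a firefly reporter under a ptc promoter fragment that responds to Hedgehog, with Renilla light as transfection reference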
# Direction: firefly Hh reporter signal: higher = more ptc reporter light; Renilla reference signal: higher = more Renilla control light
# Active means: 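Hit when the z-score averaged over two replicates is under -2 or over +3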
# Meaning of the calls: active = hit: reporter lowered or raised; inactive = not a hit
# The deposit covers about 21,000 reagents; below is an unselected part of those with a known target gene and a result. Of all reagents, 503 (2.4%) got an active call. 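Raw plate light values, not normalised; calls rest on replicate z-scores that were not deposited; hits include reporter decreases as well as increases.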 Unmarked entries are inactive. Names joined by + are all predicted targets of the reagent. Not given: the amount of reagent, the time to read-out.
gene knocked down,PubChem SID,"firefly Hh reporter signal, replicate 1","firefly Hh reporter signal, replicate 2","firefly Hh reporter signal, replicate 3","Renilla reference signal, replicate 1","Renilla reference signal, replicate 2"
CG15635,SID104180262,1.31e5,7.62e5,63553,3171,41984
Klp67A + CG34456,SID104190212,69474,66858,68452,5128,5138
Su(var)2-HP2,SID104185996,1.03e5,53537,,5099,2541
Jheh3,SID104186325,94341,86036,,4184,3473
CG14892,SID104194806,67277,85456,,2458,2276
CG33159,SID104187991,6.52e5,1.55e5,,6272,6272
CG4009,SID104195328,81280,89794,,2789,2177
CG11134,SID104199176,4.17e5,89970,,3606,3606
Hpr1,SID104192088,84507,95500,,4960,4405
eIF4E6,SID104194645,1.25e5,1.03e5,,4073,2054
aft,SID104187368,1.35e5,95696,,5432,4172
stan,SID104185026,29272 (active),47096,,1136,2776
stan,SID104187489,93318,61927,,2288,4883
CG8563,SID104190788,52722,35396,,5712,2454
CG42854,SID104198965,6.72e5,2.17e5,,37190,4258
Mat1,SID104187257,79808,38272,,2006,3616
CG31343,SID104195679,1.06e5,85904,,5414,3324
CG30099,SID104186831,92776,57789,,2469,4587
chico,SID104183323,63760,30891,,3186,1483
CG33679,SID104181228,1.37e5,2.44e5,,3253,11836
Dlip1,SID104198252,1.25e5,2.58e5,,4006,9056
Tsp42Ef,SID104185983,82828,60933,,2097,5528
CG5214,SID104195531,93049,4.96e5,1.51e5,3648,3040
Mcm5,SID104196527,52402,96202,,1529,2662
CG42712 (retired record),SID104180830,4.39e5,1.78e5,,20907,6437
shv,SID104180432,1.28e5,1.21e5,,2896,2690
Oda,SID104187418,72673,37132,,2099,3126
Polr2L,SID104194422,5.61e5,94962,,24916,2448
CG14635,SID104197737,77597,1.74e5,,1904,6649
Dis3,SID104195826,93560,52754,,4277,2667
CG7139,SID104191403,1.05e5,92166,,3971,3954
CG1620,SID104186395,1.45e5,96011,,5040,3036
MED21,SID104200724,2.05e5,3.99e5,,6740,16205
CG32582 (retired record),SID104198906,6.67e5,2.10e5,,38560,5868
Tsp2A,SID104198376,69491,1.22e5,,2000,5114
CG33099,SID104195566,1.03e5,1.25e5,,4106,4962
CG17470,SID104182413,75891,43037,,3017,1827
CD98hc,SID104195245,54301,1.12e5,,1866,23668
comm,SID104191128,1.26e5,,,5606,3873
CG4404,SID104199689,76224,1.67e5,,2002,8306
CG32391,SID104188657,1.22e5,2.50e5,,3184,9552

Quoted from the listing (5 entries):
gene knocked down,PubChem SID,"firefly Hh reporter signal, replicate 1","firefly Hh reporter signal, replicate 2","firefly Hh reporter signal, replicate 3","Renilla reference signal, replicate 1","Renilla reference signal, replicate 2"
Oda,SID104187418,72673,37132,,2099,3126
Polr2L,SID104194422,5.61e5,94962,,24916,2448
CG14635,SID104197737,77597,1.74e5,,1904,6649
Dis3,SID104195826,93560,52754,,4277,2667
CG7139,SID104191403,1.05e5,92166,,3971,3954

Additional records follow:
gene knocked down,PubChem SID,"firefly Hh reporter signal, replicate 1","firefly Hh reporter signal, replicate 2","firefly Hh reporter signal, replicate 3","Renilla reference signal, replicate 1","Renilla reference signal, replicate 2"
Cog2,SID104196779,60996,86760,,1476,1867
Srp19,SID104191080,59876,56348,,6936,3840
grnd,SID104181812,1.55e5,49092,,3369,3227
CAH1 + Adat1,SID104181801,59555,53794,,2513,2523
CG5280,SID104190290,63509,99876,,5868,6413
CG17841,SID104197529,89429,54037,,2412,1529
Adf1,SID104184733,1.84e5,3.29e5,,3896,11436
Adf1,SID104184755,1.18e5,68555,,4118,2288
CG12679,SID104200285,64515,1.25e5,,1456,5620
CG12278,SID104194286,5.31e5,72807,,25980,2171
Tango4,SID104199578,61789,44903,,2054,1557
CG2772,SID104180322,85672,58858,,1907,4557
CG1409,SID104197702,65958,2.02e5,,2550,8354
CG42747,SID104190001,43259,68999,,1059,5543
CG42747,SID104190002,38825,93257,,4561,5213
CR41501,SID104187577,1.09e5,3.01e5,,3029,10881
CG13185,SID104186102,85394,40608,,4007,1894
Tdrd3,SID104189808,90576,,,2193,2934
Cda4,SID104200415,1.02e5,2.23e5,,3434,10065
Cda4,SID104200433,60056,1.60e5,,1867,7164
Cda4,SID104200434,79729,2.43e5,,3516,11123
Ppt2,SID104182578,68162,44896,,3381,2071
Ntf-2r,SID104181811,71238,33752,,1672,2023
CG17807,SID104184088,70961,41222,,2707,1700
Prx6a,SID104180357,79254,96137,,3868,3926
Sce,SID104196617,86098,70022,,2212,1907
wg,SID104183428,1.42e5,61397,,3673,6209
CG34136,SID104181625,2.34e5,3.17e5,,6064,15531
Trpgamma,SID104183418,1.00e5,78039,,2585,7801
Pif1A + Pif1B,SID104193934,1.13e5,1.55e5,,4416,3915
Pif1A + Pif1B,SID104194172,1.59e5,77542,,5949,3079
Pif1A + Pif1B,SID104194173,1.69e5,2.15e5,,6296,5820
